Source: patent US11591294B2, “Fluorenone/fluorenol derivatives for aqueous redox flow batteries” (Battelle Memorial Institute, priority 2019, dated 2023)

Key:
[1] = Cyclic voltammetry in aqueous 1 M NaOH; assay type: physicochemical; conditions: glassy carbon
Method: Electrochemical tests: CV measurements in aqueous phase were performed using a three-electrode configuration consisting of a glassy carbon working electrode (3 mm diameter), a glassy carbon counter electrode and an Ag/AgCl reference electrode. The electrolytes of 10 mM redox-active materials in 1.0 M NaOH were used. CV data were collected using a CHI760D potentiostat (CH Instruments) at a scan rate of 100 mV s^−1 (Hollas et al., Nature Energy 2018, 3:508-514). CV measurements in nonaqueous phase were performed using a three-electrode configuration consisting of a glassy carbon working electrode (3 mm diameter), a glassy carbon counter electrode and an Ag/AgNO3 (10 mM in Acetonitrile) as reference electrode or Ag wire as pseudo reference electrode (Inzelt et al., Handbook of Reference Electrodes, 2013, Springer). Tests were carried out in an argon-filled Mbraun glove box (Stratham, N.H., USA).
In view of the DFT calculation, it was theorized that functionalization of the FL ring structures with electron withdrawing groups such as —F, -sulfonamide, and —SO3−, among others, would shift the equilibrium constant to increase the concentration of deprotonated FL-OH anion/dianion relative to FL-OH, thereby improving the two-electron redox-reversibility of FLs. […] As expected, the CV curves with two pairs of peaks become clear and sharp with adding stronger electron withdrawing groups. The results of pH testing using DSFL as a model molecule also supported the radical anion intermediate stability was highly dependent on aqueous media pH level (FIG. 12). Reversibility was seen only at high pH, which confirmed the hypothesis of deprotonation enabling reversible oxidation.

[2] = Flow cell tests (aqueous redox flow battery, ferro/ferricyanide catholyte); conditions: for discharge capacity: 0.5 M anolyte
[3] = Interdigitated flow cell test of 14N2CN3OHFL; conditions: 0.1 M
[4] = 1 M anolyte, 20 mA/cm^2, more than 200 cycles
[5] = 1 M anolyte, 50° C. in air, 100 mA cm^−2

SMILES: O=C(O)c1cccc2c1C(=O)c1cc(S(=O)(=O)[O-])ccc1-2.[K+] [Compound 1C7SFL]
- redox behaviour by cyclic voltammetry (in words) [1]: irreversible reduction

SMILES: O=C(O)c1cccc2c1-c1ccc(S(=O)(=O)O)cc1C2=O [Compound 4C7SFL, 9-Oxo-7-sulfo-9H-fluorene-4-carboxylic acid]
- redox behaviour by cyclic voltammetry (in words) [1]: two separate one-electron reduction peaks and only one re-oxidation peak
- discharge capacity ([2]; 20 mA cm^−2): 30%
- discharge capacity ([2]; 40 mA cm^−2): less than 10%
- anolyte volumetric capacity ([2]; 1 M anolyte, 20 mA/cm^2): 39.3 Ah/L
- stable discharge voltage ([2]; 1 M anolyte, 20 mA/cm^2, hundreds of cycles): over 1 V
- Coulombic efficiency (CE) [2, 4]: ~100%
- energy efficiency (EE) [2, 4]: ~80%
- EE [2, 5]: 70.6%
- VE [2, 5]: 70.8%
- average CE ([2]; 1 M anolyte, 50° C. in air, 100 mA cm^−2, more than 700 cycles): 99.8%
- capacity retention per cycle ([2]; 1 M anolyte, 16 days of cycling, 100 mA cm^−2, 50° C.): 99.98 % per cycle
- capacity retention ([2]; 1 M anolyte, over 780 cycles, 100 mA cm^−2, 50° C.): 88%
- EE ([2]; 1.36 M anolyte, 20 mA cm^−2): 92%
- VE ([2]; 1.36 M anolyte, 20 mA cm^−2): 93%
- material utilization percentage (two-electron basis) ([2]; 1.36 M anolyte, 20 mA cm^−2): 72%
- capacity fade per cycle ([2]; 1.36 M anolyte, 20 mA/cm^2): 0.000024 %/cycle
- voltage at 50% of discharge capacity point ([2]; 1.36 M anolyte, 20 mA/cm^2): ~1.10 V
- capacity fade per day ([2]; 1.36 M anolyte, 20 mA/cm^2, 120 days): 0.00022 %/day
- reversible capacity delivered over 1 V during discharge ([2]; 1.36 M anolyte, 20 mA/cm^2, 120 days (1111 cycles)): > 96%
- EE ([2]; 1.36 M anolyte, 60 mA cm^−2): 78%
- VE ([2]; 1.36 M anolyte, 60 mA cm^−2): 79%
- material utilization percentage (two-electron basis) ([2]; 1.36 M anolyte, 60 mA cm^−2): 38%
- discharge voltage ([2]; 1.36 M anolyte, current densities 20-60 mA/cm^2): > 1 V
- capacity fade ([2]; 1.36 M anolyte, cycle 17 to cycle 1111, 20 mA/cm^2): ~0.026%
- average Coulombic efficiency (CE) ([2]; 1.36 M anolyte, extended cycling): ~100%
- overall energy efficiency (EE) ([2]; 1.36 M anolyte, majority of the cycles): approximately 90%
- capacity retention ([2]; 1.4 M anolyte in 1 M NaOH, over 120 days of operation): 97.38%

SMILES: N#Cc1nc2c(nc1O)-c1ccccc1C2=O [Compound 14N2CN3OHFL, 3-hydroxy-9-oxo-9H-indeno[1,2-b]pyrazine-2-carbonitrile]
- Columbic efficiency ([3]; 20 mAcm^−2): ~100%
- energy efficiency ([3]; 20 mAcm^−2): above 80%
- voltage efficiency ([3]; 20 mAcm^−2): above 80%
- utilization ([3]; 20 mAcm^−2, over 250 cycles): ~30%

SMILES: O=C1c2cc(Br)cc(S(=O)(=O)[O-])c2-c2c1cc(Br)cc2S(=O)(=O)[O-].[K+].[K+] [Compound 27Br4SFL]
- redox behaviour by cyclic voltammetry (in words) [1]: some enhancement of hydrogenated alcohol re-oxidation

SMILES: O=C(O)c1cc(S(=O)(=O)O)cc2c1-c1ccc(S(=O)(=O)O)cc1C2=O [Compound 27S4CFL, 9-oxo-2,7-sulfo-9H-fluorene-4-carboxylic acid]
- discharge capacity ([2]; 20 mA cm^−2): 80%
- discharge capacity ([2]; 40 mA cm^−2): ~70%

SMILES: O=C1c2cc(O)ccc2-c2ccc(O)cc21 [DHFL, 9-oxo-2,7-dihydroxy-9H-fluorene]
- redox behaviour by cyclic voltammetry (in words) [1]: irreversible reaction

SMILES: O=C1c2cc(S(=O)(=O)[O-])ccc2-c2ccc(S(=O)(=O)[O-])cc21.[K+].[K+] [DSFL, Potassium 9-oxo-9H-fluorene-2,7-disulfonate]
- redox behaviour by cyclic voltammetry (in words) [1]: two separate one-electron reduction peaks and only one re-oxidation peak
